Source: US20260027116A1, “Methods of Treating Chronic Graft-Versus-Host Disease Following Allogeneic Hematopoietic Stem Cell Transplantation” (Kadmon Corporation, LLC, priority 2022, published 2026)
For at least one compound, name, drawing or mass did not settle the structure.

System: chronic GVHD
Assay: animal models of chronic GVHD
Settings: in vivo

Question: With `CC(C)NC(=O)COc1cccc(-c2nc(Nc3ccc4[nH]ncc4c3)c3ccccc3n2)c1` [Belumosudil, 2-{3-[4-(1H-indazol-5-ylamino)-2-quinazolinyl]phenoxy}-N-(propan-2-yl) acetamide] as the molecule, how does the “activity in animal models of chronic GVHD” value read?
Answer: The value was “demonstrated activity”.
